# Assay results published in PMC7819943, “Rice protein-binding microarrays: a tool to detect cis-acting elements near promoter regions in rice”.
# Chains of the proteins cited; added tags and fusions are not shown.
# UniProt Q0JBA9, entry or part of it: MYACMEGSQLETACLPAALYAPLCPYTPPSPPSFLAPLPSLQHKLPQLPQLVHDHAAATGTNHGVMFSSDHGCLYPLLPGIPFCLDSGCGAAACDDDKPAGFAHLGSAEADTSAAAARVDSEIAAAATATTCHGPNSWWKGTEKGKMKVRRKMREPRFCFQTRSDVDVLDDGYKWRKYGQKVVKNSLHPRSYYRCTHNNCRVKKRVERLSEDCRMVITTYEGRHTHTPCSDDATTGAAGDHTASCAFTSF
# This is one part of the list.
# Target: OsWRKY34 (Oryza sativa, UniProt Q0JBA9 1-250)
# Assay: protein-binding microarray (RPBM); PBS, 2% BSA, 51.3 ng/ul salmon testes DNA, 50 uM zinc acetate, 200 nM TF, 25 C, 1 h; high values mean tight binding
# Conditions: protein: recombinant; tags: N-terminal polyhistidine and DsRed monomer fusion (pET32a); label: CyDye5-dUTP incorporated in the synthesized complementary strand; 3' TTTTT single-stranded linker to array surface; dsDNA, one strand shown
# Procedure, shortened: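 Transcription factors were each fused at the N-terminus to a polyhistidine tag plus DsRed and expressed in E. coli BL21-CodonPlus before Ni–NTA purification. Binding to a double-stranded custom Agilent array was carried out with 200 nM protein at 25 °C for 1 h in PBS, 2% BSA, salmon testes DNA and 50 µM zinc acetate. The binding signal is per-feature fluorescence intensity, in arbitrary units, on an Axon 4000B scanner.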
row,Sequence,binding signal
1,TGGTAGCACGTATTTTTCTCTCCCTGTTTTTTTGCTGATTCGGAGTCACCTAGTGCAG,9630 fluorescence intensity (a.u.)
2,GATGTAACTTATTTTATTTAATTTTCTGCTTAAATGTTTTCGGAGTCACCTAGTGCAG,9410 fluorescence intensity (a.u.)
3,CGCCGCCACCGTCCTCTCCGCTCCGCTCCGGCCCAACGAGCGGAGTCACCTAGTGCAG,8390 fluorescence intensity (a.u.)
4,AAGTCTTCTCAAATTTGCAAACTCTACTGTTTTGTTTGATCGGAGTCACCTAGTGCAG,10200 fluorescence intensity (a.u.)
5,CCCCAACTACCCCAAATTTCCAATTTTCCATCACATCACACGGAGTCACCTAGTGCAG,11000 fluorescence intensity (a.u.)
6,TTCATTCGTCCCATGATATTTTTTTTCTAGCATTTAAAAGCGGAGTCACCTAGTGCAG,8220 fluorescence intensity (a.u.)
7,ACCCTTCACTACTCATTTCTACCTATTTTCTTAATAACCGCGGAGTCACCTAGTGCAG,8900 fluorescence intensity (a.u.)
8,CGACTCGACGTCGTCGTCATTCTTCATGGCTGGGTGGGTTCGGAGTCACCTAGTGCAG,9940 fluorescence intensity (a.u.)
9,TCTCTCATTTGGTACATAAACTTTTCTTGTTGTCGCTCTTCGGAGTCACCTAGTGCAG,8930 fluorescence intensity (a.u.)
10,ACCAGTTTTTCTGCTAGGGATCTTCGTCGGCGCCCTTCTTCGGAGTCACCTAGTGCAG,9820 fluorescence intensity (a.u.)
11,AATACTCATCATTAGGAGCACATGTCTAAGTTTTTTTTAACGGAGTCACCTAGTGCAG,8350 fluorescence intensity (a.u.)
12,TCATGATTCTGGATATATCTTTTCCCAATTTATCATGCCACGGAGTCACCTAGTGCAG,8370 fluorescence intensity (a.u.)
13,TGGTTGTATAATTCTACCCGCTGGCGGTGTCGCTTGTGAACGGAGTCACCTAGTGCAG,8700 fluorescence intensity (a.u.)
14,CTGCTTCCGCCGCATCCACATCCTTCGCCGCCGCCGCCGCCGGAGTCACCTAGTGCAG,10600 fluorescence intensity (a.u.)
15,GGATTTCTATATGGACTCTAGTCTCCTCTTCTAATATTCCCGGAGTCACCTAGTGCAG,9530 fluorescence intensity (a.u.)
16,TCTCAGTTGCAAAAACAGATACAGCCTATATACCTTTTTTCGGAGTCACCTAGTGCAG,8310 fluorescence intensity (a.u.)
17,AGGTGTACATGATTGTTTGCTTCCTTGCTGCAGCTCGGCGCGGAGTCACCTAGTGCAG,9030 fluorescence intensity (a.u.)
18,ACCCACTCTTTTTTTCAAGTTCCAGCATCCGTTTGTGAATCGGAGTCACCTAGTGCAG,8850 fluorescence intensity (a.u.)
19,TGTTTATTTTTTTCGTTAAATTTGATTGTTTCCATTTGCACGGAGTCACCTAGTGCAG,9770 fluorescence intensity (a.u.)
20,ATTTATCTTCTCTGTTTAGGGCTCCTAAAAATTCGAACTACGGAGTCACCTAGTGCAG,9150 fluorescence intensity (a.u.)
21,GTTGTATTTATTGGTACCCTTGAAATTTTGTGGTATTCTTCGGAGTCACCTAGTGCAG,8390 fluorescence intensity (a.u.)

# Reprinted at random: two records from the list
row,Sequence,binding signal
7,ACCCTTCACTACTCATTTCTACCTATTTTCTTAATAACCGCGGAGTCACCTAGTGCAG,8900 fluorescence intensity (a.u.)
1,TGGTAGCACGTATTTTTCTCTCCCTGTTTTTTTGCTGATTCGGAGTCACCTAGTGCAG,9630 fluorescence intensity (a.u.)

# The results go on:

row,Sequence,binding signal
1,CCGAGCAACCGGTCTTTTCGCCACCTCGGTACATGTTCTACGGAGTCACCTAGTGCAG,13400 fluorescence intensity (a.u.)
2,TTCTCCTCCTATGCGGACACGCCGCCACCCACGAGGCCACCGGAGTCACCTAGTGCAG,8700 fluorescence intensity (a.u.)
3,CGCGTTCATCTTCTGCTTGTTATAATCCTCCATTCTTTTTCGGAGTCACCTAGTGCAG,12400 fluorescence intensity (a.u.)
4,CCACGCGTCCGCGTCCCGCACGCCAATCACACGCACGGAGCGGAGTCACCTAGTGCAG,8170 fluorescence intensity (a.u.)
5,CCAGTTCATCCACACGTGTGTAGTCCGTTTGTTGGTTGGTCGGAGTCACCTAGTGCAG,10500 fluorescence intensity (a.u.)
6,AATTTTGTTACTTAATCTATAGCTTTGTGACCATATATTTCGGAGTCACCTAGTGCAG,8630 fluorescence intensity (a.u.)
7,CAGGGGCTATTTCTGCAATTTTTTTGGTCGATAGATTATTCGGAGTCACCTAGTGCAG,9070 fluorescence intensity (a.u.)
8,ACTCTATTTAGATATTTTCCCACGCATCCGTCTCCTCCTCCGGAGTCACCTAGTGCAG,9420 fluorescence intensity (a.u.)
9,CCGTTTTGTATAGTTAAGGGCCCCGCATATCTGGTTTTGTCGGAGTCACCTAGTGCAG,8210 fluorescence intensity (a.u.)
10,TCATCCGGACTAAACGCGTCCATCCGCGCGCTTCTCTTCCCGGAGTCACCTAGTGCAG,8590 fluorescence intensity (a.u.)
11,CTCCTCTAACGTACCATAGAGGGACATACGTTTCTGATGTCGGAGTCACCTAGTGCAG,8720 fluorescence intensity (a.u.)
12,CAGAAATTCCATATGCCATATGTTAGCTTATGTCCAATTGCGGAGTCACCTAGTGCAG,8550 fluorescence intensity (a.u.)
13,TTCAAACTGCTAAACGGTATGTTATTTTTTAAAAGTTTCTCGGAGTCACCTAGTGCAG,9550 fluorescence intensity (a.u.)
14,GCATCCCTTTCCTCGACACTCTGCACTCCAGGCTTCAATTCGGAGTCACCTAGTGCAG,11100 fluorescence intensity (a.u.)
15,ATTAATCTACGTTCGATTTAATATGTGTCCGTATACTTTACGGAGTCACCTAGTGCAG,8350 fluorescence intensity (a.u.)
16,GATTGGGTTGGGTAGAGCGGCCACACTATTGCGGAATTTCCGGAGTCACCTAGTGCAG,9200 fluorescence intensity (a.u.)
17,ATCCATTCTCCGTAGTATTCTCGTATTAGGTTTGTTTTTTCGGAGTCACCTAGTGCAG,13700 fluorescence intensity (a.u.)
18,CGGCTCCATTTTGTCGTTGCGCGCGACGCGCCTCACTTCCCGGAGTCACCTAGTGCAG,9210 fluorescence intensity (a.u.)
19,AACGATGACTGCAGGATATTATGTTCCTATTGCAAAGTCTCGGAGTCACCTAGTGCAG,9940 fluorescence intensity (a.u.)
20,AAGGCCCGCCCAATTCCTCTTGCATGTATGTGTTTGTAGGCGGAGTCACCTAGTGCAG,8420 fluorescence intensity (a.u.)
21,CACTTGCTAATCACTCTCACTCTCATCTTAGCTTGTCCATCGGAGTCACCTAGTGCAG,8820 fluorescence intensity (a.u.)

# 2 consecutive records out of the list so far:
row,Sequence,binding signal
11,CTCCTCTAACGTACCATAGAGGGACATACGTTTCTGATGTCGGAGTCACCTAGTGCAG,8720 fluorescence intensity (a.u.)
12,CAGAAATTCCATATGCCATATGTTAGCTTATGTCCAATTGCGGAGTCACCTAGTGCAG,8550 fluorescence intensity (a.u.)
